PubChem BioAssay AID720505, Drosophila RNAi Screening Center | 2013
The screen tested about 20,000 reagents; shown is an unselected part of those with a known target gene and a result. Of all reagents, about 2,100 (10%) got an active call. 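Raw plate signals without normalisation; calls rest on control-based scores that were not deposited; replicate 2 separates called from uncalled poorly.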 A plus sign joins genes that one reagent is predicted to hit. Not given: the amount of reagent, the time to read-out.

Screen: 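Genes needed for store-operated calcium entry in fly cells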 (primary screen)
Cell system: Drosophila S2R+ cells
Reagent: long dsRNA against Drosophila genes
Conditions: thapsigargin (2 µM) in calcium-free buffer to empty internal stores, then 2 mM calcium added back
Measurement: 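Stores emptied by 2 µM thapsigargin without calcium, then 2 mM calcium re-added; fluo-4 fluorescence followed by FLIPR in 384-well plates, per-well averaged endpoint, raw; two screen passes, some wells retested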
Reading the numbers: calcium signal and retest calcium signal: higher = more calcium entry after store depletion
Hit rule: 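About 1500 genes called as lowering calcium entry, by varying amounts, judged against per-plate control wells with STIM1 as positive and Rho1 as negative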
Meaning of the calls: active = called as lowering calcium entry; inactive = not called

no.	Target gene	DRSC id	calcium signal, replicate 1	calcium signal, replicate 2	retest calcium signal, replicate 1	retest calcium signal, replicate 2	Outcome
1	Nup98-96 (Nucleoporin 98-96kD)	DRSC14209	182	170			inactive
2	Nup98-96 (Nucleoporin 98-96kD)	DRSC14210	101	152			active
3	Cat (Catalase)	DRSC11110	98.7	137			inactive
4	Obp56i (Odorant-binding protein 56i)	DRSC05812	96.8	96			inactive
5	CG2444	DRSC19846	121	81.3			inactive
6	CG32444	DRSC11677	127	96.4			inactive
7	CG16782	DRSC18118	85.9	97.4			inactive
8	Ir75b (Ionotropic receptor 75b)	DRSC10189	169	197			inactive
9	Snp (Snipper)	DRSC04524	71.9	178			inactive
10	Snp (Snipper)	DRSC21538	224	101			inactive
11	side-II (sidestep II)	DRSC01427	173	108			inactive
12	side-II (sidestep II)	DRSC01429	166	88.4			inactive
13	side-II (sidestep II)	DRSC01913	114	93			inactive
14	side-II (sidestep II)	DRSC01932	116	125	104	130	inactive
15	side-II (sidestep II)	DRSC02480	91.9	155	82.7	75.2	inactive
16	side-II (sidestep II)	DRSC22508	69.3	174			inactive
17	CG15876	DRSC08484	97.9	87.8			inactive
18	CG6125	DRSC15970	92.4	68.7			inactive
19	Ciz1 (Ciz1 zinc finger protein)	DRSC09675	82.5	97.6			inactive
20	h-cup (heineken-cup)	DRSC15973	106	116			inactive
21	CG14309	DRSC14788	187	204			inactive
22	CG33506	DRSC05981	103	102			inactive
23	CG4984 + CG4975	DRSC06907	168	165			inactive
24	CG4984 + CG4975	DRSC06908	114	167			inactive
25	Trp1 (Translocation protein 1)	DRSC03465	66.7	79.1			active
26	CG1288	DRSC12538	114	169			inactive
27	al (aristaless)	DRSC00799	183	140	104	88.2	inactive
28	chif (chiffon)	DRSC03508	124	109			inactive
29	Atf6	DRSC04743	98.7	128	91.2	76.5	inactive
30	Atf6	DRSC04889	104	113			active
31	Grip (Glutamate receptor interacting protein)	DRSC17940	238	136			inactive
32	Grip (Glutamate receptor interacting protein)	DRSC18395	220	128			inactive
33	fbl (fumble)	DRSC11886	90.2	119			inactive
34	CG10919	DRSC14283	116	152			inactive
35	Nos (Nitric oxide synthase)	DRSC03381	93.7	139			inactive
36	Hsp70Aa + Hsp70Ab	DRSC21246	191	82.4			inactive
37	Acbp2 (Acyl-CoA binding protein 2)	DRSC11141	73.3	65.1			inactive
38	tsr (twinstar)	DRSC04718	92	161			inactive
39	Obp58d (Odorant-binding protein 58d)	DRSC04162	188	239			inactive
40	Tep5Psi (Thioester-containing protein 5 pseudogene)	DRSC02183	65.5	187			inactive
41	Tep5Psi (Thioester-containing protein 5 pseudogene)	DRSC02184	182	79.9			inactive
42	p38b (p38b MAP kinase)	DRSC03586	144	132			inactive
43	CG5377	DRSC15783	145	148			inactive
44	Osi8 (Osiris 8)	DRSC12277	107	168			inactive
45	Ppox (Protoporphyrinogen oxidase)	DRSC17033	238	112			inactive
46	CG10600	DRSC02074	72.4	90.5			inactive
47	boi	DRSC18425	105	118			inactive
48	boi	DRSC18598	85.5	125			inactive
49	CG11263	DRSC09832	89.4	97.9			inactive
50	CG9117	DRSC03141	151	87.9			inactive
51	Faf2 (Fas-associated factor 2)	DRSC03325	111	88			inactive
52	CG13473	DRSC10017	77.2	70.7			inactive
53	Sgf11 (SAGA associated factor 11kDa)	DRSC09987	100	174			inactive
54	CG5021	DRSC10469	89.9	70.5			inactive
55	squ (squash)	DRSC01549	73	154			inactive
56	Phs (Phaser)	DRSC10827	127	96.8			inactive
57	CG31624	DRSC02617	237	122			inactive
58	CG1698	DRSC06640	158	183			inactive
59	Ptp99A (Protein tyrosine phosphatase 99A)	DRSC13933	8211	136			inactive
60	Ptp99A (Protein tyrosine phosphatase 99A)	DRSC14319	69.2	128			active
61	Ptp99A (Protein tyrosine phosphatase 99A)	DRSC14320	140	111			inactive
62	Ptp99A (Protein tyrosine phosphatase 99A)	DRSC16803	140	96.4			inactive
63	Ptp99A (Protein tyrosine phosphatase 99A)	DRSC22125	77.9	155			inactive
64	Ptp99A (Protein tyrosine phosphatase 99A)	DRSC22477	138	188			inactive
65	Ptp99A (Protein tyrosine phosphatase 99A)	DRSC23033	120	159			inactive
66	RYBP (Ring and YY1 Binding Protein)	DRSC04117	124	89			inactive
67	Bap170 (Brahma associated protein 170kD)	DRSC04964	181	86.8			inactive
68	Bap170 (Brahma associated protein 170kD)	DRSC21826	141	98.8			inactive
69	SPH93 (Serine protease homolog 93)	DRSC02978	101	109			inactive
70	blo (bloated)	DRSC05937	151	175			inactive
71	pdm2 (POU domain protein 2)	DRSC02496	131	107			inactive
72	pdm2 (POU domain protein 2)	DRSC02497	121	109			inactive
73	pdm2 (POU domain protein 2)	DRSC03587	65.5	77.5			active
74	CG14820	DRSC10191	121	84.6			inactive
75	tomboy20	DRSC14913	158	88.6			inactive
76	CG8950	DRSC07300	56.5	126			active
77	cindr (CIN85 and CD2AP related)	DRSC14126	117	172			inactive
78	cindr (CIN85 and CD2AP related)	DRSC14298	179	158			inactive
79	twin	DRSC15259	165	164			inactive
80	twin	DRSC15831	181	91.4			inactive
81	twin	DRSC21363	138	94			inactive
82	CG31787	DRSC01632	66.3	220			active
83	CG4151	DRSC18351	167	141			inactive

Records above whose gene name begins with N or n:
Target gene	DRSC id	calcium signal, replicate 1	calcium signal, replicate 2	retest calcium signal, replicate 1	retest calcium signal, replicate 2	Outcome
Nup98-96 (Nucleoporin 98-96kD)	DRSC14209	182	170			inactive
Nup98-96 (Nucleoporin 98-96kD)	DRSC14210	101	152			active
Nos (Nitric oxide synthase)	DRSC03381	93.7	139			inactive
